# Experimental data as given in the supplement of paper PMC8728848.
# Some of the results follow.
# B1: MUB70 (Lactobacillus reuteri) (protein)
# chain: CVHVQYIDGETDQMLRQDDLDGYTDETIPYSTAEGIKKFEGDGYELFKDNFPAGEKFDNDDTNDQFYTVIF
# What was measured:
# Assay in all cases: glycan array binding signal (z-score within array); higher = stronger binding
# Conditions in all cases: glycan notation: IUPAC condensed, linker removed
# [1] = molecular target: Fuc(a1-2)[GalNAc(a1-3)]Gal(b1-3)GlcNAc(b1-3)GalNAc
# Outline: (§1)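 The binding signal is a Z-score computed within each array. Data were drawn from 3228 arrays in the Consortium for Functional Glycomics database, restricted to those with a known protein sequence. Scores were averaged over arrays of the same protein sequence at different concentrations or buffers, and over linkers, and negative values can be taken as non-binding.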
# [2] = molecular target: Fuc(a1-2)[GalNAc(a1-3)]Gal(b1-3)GlcNAc(b1-6)GalNAc
# Outline: as §1
# [3] = molecular target: Fuc(a1-2)[GalNAc(a1-3)]Gal(b1-4)Glc
# Outline: as §1
# [4] = molecular target: Fuc(a1-2)[GalNAc(a1-3)]Gal(b1-4)GlcNAc
# Outline: as §1
# [5] = molecular target: Fuc(a1-2)[GalNAc(a1-3)]Gal(b1-4)GlcNAc(b1-2)Man
# Outline: as §1
# [6] = molecular target: Fuc(a1-2)[GalNAc(a1-3)]Gal(b1-4)GlcNAc(b1-2)Man(a1-3)[Fuc(a1-2)[GalNAc(a1-3)]Gal(b1-4)GlcNAc(b1-2)Man(a1-6)]Man(b1-4)GlcNAc(b1-4)GlcNAc
# Outline: as §1
# [7] = molecular target: Fuc(a1-2)[GalNAc(a1-3)]Gal(b1-4)GlcNAc(b1-2)Man(a1-3)[Fuc(a1-2)[GalNAc(a1-3)]Gal(b1-4)GlcNAc(b1-2)Man(a1-6)]Man(b1-4)GlcNAc(b1-4)[Fuc(a1-6)]GlcNAc
# Outline: as §1
# [8] = molecular target: Fuc(a1-2)[GalNAc(a1-3)]Gal(b1-4)GlcNAc(b1-3)Gal(b1-4)GlcNAc
# Outline: as §1
# [9] = molecular target: Fuc(a1-2)[GalNAc(a1-3)]Gal(b1-4)GlcNAc(b1-3)Gal(b1-4)GlcNAc(b1-3)Gal(b1-4)GlcNAc
# Outline: as §1
# [10] = molecular target: Fuc(a1-2)[GalNAc(a1-3)]Gal(b1-4)GlcNAc(b1-3)GalNAc
# Outline: as §1
# [11] = molecular target: Fuc(a1-2)[GalNAc(a1-3)]Gal(b1-4)GlcNAc(b1-3)[Fuc(a1-2)[GalNAc(a1-3)]Gal(b1-4)GlcNAc(b1-6)]GalNAc
# Outline: as §1
# [12] = molecular target: Fuc(a1-2)[GalNAc(a1-3)]Gal(b1-4)GlcNAc(b1-6)GalNAc
# Outline: as §1
# [13] = molecular target: Fuc(a1-2)[GalNAc(a1-3)]Gal(b1-4)[Fuc(a1-3)]GlcNAc
# Outline: as §1
# [14] = molecular target: Fuc(a1-2)[GalNAc(a1-3)]Gal(b1-4)[Fuc(a1-3)]GlcNAc(b1-3)GalNAc
# Outline: as §1
# [15] = molecular target: Fuc(a1-2)[GalNAc(a1-4)]Gal(b1-4)GlcNAc
# Outline: as §1
# [16] = molecular target: Fuc(a1-2)[GalNAc(b1-3)]Gal
# Outline: as §1
# [17] = molecular target: Fuc(a1-3)GlcNAc
# Outline: as §1
# [18] = molecular target: Fuc(a1-3)[Gal(b1-4)]Glc6S
# Outline: as §1
# [19] = molecular target: Fuc(a1-3)[Gal(b1-4)]GlcNAc
# Outline: as §1
# [20] = molecular target: Fuc(a1-3)[Gal(b1-4)]GlcNAc(b1-2)Man
# Outline: as §1
# [21] = molecular target: Fuc(a1-3)[Gal(b1-4)]GlcNAc(b1-2)Man(a1-3)[Fuc(a1-3)[Gal(b1-4)]GlcNAc(b1-2)Man(a1-6)]Man(b1-4)GlcNAc(b1-4)GlcNAc
# Outline: as §1
# [22] = molecular target: Fuc(a1-3)[Gal(b1-4)]GlcNAc(b1-2)Man(a1-3)[Fuc(a1-3)[Gal(b1-4)]GlcNAc(b1-2)Man(a1-6)]Man(b1-4)GlcNAc(b1-4)[Fuc(a1-6)]GlcNAc
# Outline: as §1
# [23] = molecular target: Fuc(a1-3)[Gal(b1-4)]GlcNAc(b1-3)Gal(b1-3)[Fuc(a1-4)]GlcNAc
# Outline: as §1
# [24] = molecular target: Fuc(a1-3)[Gal(b1-4)]GlcNAc(b1-3)Gal(b1-4)[Fuc(a1-3)]GlcNAc
# Outline: as §1
# [25] = molecular target: Fuc(a1-3)[Gal(b1-4)]GlcNAc(b1-3)Gal(b1-4)[Fuc(a1-3)]GlcNAc(b1-3)Gal(b1-4)[Fuc(a1-3)]GlcNAc
# Outline: as §1
# [26] = molecular target: Fuc(a1-3)[Gal(b1-4)]GlcNAc(b1-3)GalNAc
# Outline: as §1
# [27] = molecular target: Fuc(a1-3)[Gal(b1-4)]GlcNAc(b1-6)GalNAc
# Outline: as §1
# [28] = molecular target: Fuc(a1-3)[Gal(b1-4)]GlcNAc(b1-6)[Gal(b1-3)GlcNAc(b1-3)]Gal(b1-4)Glc
# Outline: as §1
# [29] = molecular target: Fuc(a1-3)[Gal(b1-4)]GlcNAc6S
# Outline: as §1
# [30] = molecular target: Fuc(a1-3)[Gal3S(b1-4)]Glc
# Outline: as §1
# [31] = molecular target: Fuc(a1-3)[Gal3S(b1-4)]GlcNAc
# Outline: as §1
# [32] = molecular target: Fuc(a1-3)[Gal3S(b1-4)]GlcNAc6S
# Outline: as §1
# [33] = molecular target: Fuc(a1-3)[GalNAc(b1-4)]GlcNAc
# Outline: as §1
# [34] = molecular target: Fuc(a1-3)[GalNAc(b1-4)]GlcNAc6S
# Outline: as §1
# [35] = molecular target: Fuc(a1-4)GlcNAc
# Outline: as §1
# [36] = molecular target: Fuc(b1-3)GlcNAc
# Outline: as §1
# [37] = molecular target: Gal(a1-2)Gal
# Outline: as §1
# [38] = molecular target: Gal(a1-3)Gal
# Outline: as §1
# [39] = molecular target: Gal(a1-3)Gal(b1-3)GlcNAc
# Outline: as §1
# [40] = molecular target: Gal(a1-3)Gal(b1-3)GlcNAc(b1-2)Man
# Outline: as §1
# [41] = molecular target: Gal(a1-3)Gal(b1-3)GlcNAc(b1-2)Man(a1-3)[Gal(a1-3)Gal(b1-3)GlcNAc(b1-2)Man(a1-6)]Man(b1-4)GlcNAc(b1-4)GlcNAc
# Outline: as §1
# [42] = molecular target: Gal(a1-3)Gal(b1-3)GlcNAc(b1-3)GalNAc
# Outline: as §1
# [43] = molecular target: Gal(a1-3)Gal(b1-3)GlcNAc(b1-6)GalNAc
# Outline: as §1
# [44] = molecular target: Gal(a1-3)Gal(b1-3)[Fuc(a1-4)]GlcNAc(b1-2)Man(a1-3)[Gal(a1-3)Gal(b1-3)[Fuc(a1-4)]GlcNAc(b1-2)Man(a1-6)]Man(b1-4)GlcNAc(b1-4)GlcNAc
# Outline: as §1
# [45] = molecular target: Gal(a1-3)Gal(b1-4)Glc
# Outline: as §1
binder,measurement,setting,value
B1,glycan array binding signal (z-score),[1],0.366
same,glycan array binding signal (z-score),[2],-0.37
same,glycan array binding signal (z-score),[3],0.321
same,glycan array binding signal (z-score),[4],-0.262
same,glycan array binding signal (z-score),[5],0.348
same,glycan array binding signal (z-score),[6],-0.449
same,glycan array binding signal (z-score),[7],-0.35
same,glycan array binding signal (z-score),[8],0.078
same,glycan array binding signal (z-score),[9],0.548
same,glycan array binding signal (z-score),[10],-0.319
same,glycan array binding signal (z-score),[11],-0.322
same,glycan array binding signal (z-score),[12],-0.221
same,glycan array binding signal (z-score),[13],0.489
same,glycan array binding signal (z-score),[14],-0.274
same,glycan array binding signal (z-score),[15],-0.544
same,glycan array binding signal (z-score),[16],-0.451
same,glycan array binding signal (z-score),[17],-0.207
same,glycan array binding signal (z-score),[18],-0.115
same,glycan array binding signal (z-score),[19],-0.273
same,glycan array binding signal (z-score),[20],-0.422
same,glycan array binding signal (z-score),[21],-0.491
same,glycan array binding signal (z-score),[22],-0.454
same,glycan array binding signal (z-score),[23],-0.304
same,glycan array binding signal (z-score),[24],-0.143
same,glycan array binding signal (z-score),[25],-0.805
same,glycan array binding signal (z-score),[26],0.315
same,glycan array binding signal (z-score),[27],-0.781
same,glycan array binding signal (z-score),[28],1.45
same,glycan array binding signal (z-score),[29],0.527
same,glycan array binding signal (z-score),[30],0.497
same,glycan array binding signal (z-score),[31],0.226
same,glycan array binding signal (z-score),[32],0.18
same,glycan array binding signal (z-score),[33],0.557
same,glycan array binding signal (z-score),[34],-0.174
same,glycan array binding signal (z-score),[35],0.994
same,glycan array binding signal (z-score),[36],-0.459
same,glycan array binding signal (z-score),[37],-0.747
same,glycan array binding signal (z-score),[38],0.113
same,glycan array binding signal (z-score),[39],-0.284
same,glycan array binding signal (z-score),[40],0.16
same,glycan array binding signal (z-score),[41],0.108
same,glycan array binding signal (z-score),[42],-0.062
same,glycan array binding signal (z-score),[43],-0.138
same,glycan array binding signal (z-score),[44],0.401
same,glycan array binding signal (z-score),[45],-0.469

# 3 records picked at random from the list so far:
binder,measurement,setting,value
B1,glycan array binding signal (z-score),[37],-0.747
same,glycan array binding signal (z-score),[35],0.994
same,glycan array binding signal (z-score),[41],0.108
